This is an account of results in PubChem BioAssay AID248 (DTP/NCI, 2004).

This assay relates to L1210 leukemia ip in BDF1 mice, survival T/C. In words: NCI In Vivo Anticancer Drug Screen. Data for tumor model L1210 Leukemia (intraperitoneal) in B6D2F1 (BDF1) mice. The note with it: T/C endpoint: mean survival time, higher T/C = longer survival.

The list does not hold the whole screen: it is rich in T/C values a quarter to a half above the control, in often repeated tests (any T/C) and in doses without a T/C. Other doses and runs of a compound stand elsewhere. T/C: endpoint of the treated group in % of that of the vehicle group. Some doses have a count of surviving animals in place of a T/C: the source holds a T/C of zero for them, seemingly a mark for toxic or unscored doses. Some survivor counts are full or nearly so, which does not show that the dose was tolerated: survival well below the control is almost never listed, so the zero probably covers shortened survival too. Survivors were counted at the toxicity check, usually on the fifth day, unless a day is given; later deaths do not show. Schedules are NCI's codes, read here as Q, the interval in days (D) or hours (H), X, the number of doses. For survival time, this PubChem deposit counts one and a half times the control or more as active, and values a quarter to a half above the control carry no call in these data; other NCI protocols may use other cut-offs. Some entries hold several experiments; the values are given in rising order. Some T/C values are followed by the survivors on the day toxicity was checked, most often the fifth; without a count, all were alive then.

Consider `CC(C)Oc1ccc(CC(N)C(=O)O)cc1N(CCCl)CCCl` (stereo not drawn), for which the T/C (dose: 1.2 mg/kg/injection, schedule: Q01DX009 (ip), vehicle: carboxymethylcellulose (CMC)) was 135 % of control; the T/C (dose: 1.5 mg/kg/injection, schedule: Q01DX009 (ip), vehicle: carboxymethylcellulose (CMC)) was 132 and 135 % of control; the T/C (dose: 2.2 mg/kg/injection, schedule: Q01DX009 (ip), vehicle: carboxymethylcellulose (CMC)) was 143 % of control; the T/C (dose: 2.5 mg/kg/injection, schedule: Q01DX009 (ip), vehicle: carboxymethylcellulose (CMC)) was 132 % of control; the T/C (dose: 3.5 mg/kg/injection, schedule: Q01DX009 (ip), vehicle: saline) is 142 % of control; the T/C (dose: 5.0 mg/kg/injection, schedule: Q01DX001 (ip), vehicle: Klucel (hydroxypropylcellulose) (HPC)) is 125 % of control. The T/C is, setting by setting: (dose: 5.0 mg/kg/injection, schedule: Q01DX009 (ip), vehicle: carboxymethylcellulose (CMC)) 130 % of control; (dose: 5.0 mg/kg/injection, schedule: Q01DX009 (ip), vehicle: saline) 144 % of control; (dose: 7.5 mg/kg/injection, schedule: Q01DX001 (ip), vehicle: Klucel (hydroxypropylcellulose) (HPC)) 129 % of control; (dose: 7.5 mg/kg/injection, schedule: Q01DX009 (ip), vehicle: saline) 138 % of control [5 of 6 alive]; (dose: 10.0 mg/kg/injection, schedule: Q01DX009 (ip), vehicle: saline) 144 % of control; (dose: 11.0 mg/kg/injection, schedule: Q01DX001 (ip), vehicle: Klucel (hydroxypropylcellulose) (HPC)) 148 % of control. Moreover, the T/C (dose: 15.0 mg/kg/injection, schedule: Q01DX001 (ip), vehicle: saline with Tween-80) was 131 % of control; the T/C (dose: 15.0 mg/kg/injection, schedule: Q01DX009 (ip), vehicle: saline) was 128 % of control; the T/C (dose: 16.5 mg/kg/injection, schedule: Q01DX001 (ip), vehicle: Klucel (hydroxypropylcellulose) (HPC)) is 140 % of control; the T/C (dose: 21.0 mg/kg/injection, schedule: Q01DX001 (ip), vehicle: saline with Tween-80) was 135 % of control; the T/C (dose: 29.0 mg/kg/injection, schedule: Q01DX001 (ip), vehicle: saline) is 130 % of control; the T/C (dose: 30.0 mg/kg/injection, schedule: Q01DX001 (ip), vehicle: carboxymethylcellulose (CMC)) was 142 % of control. Also, the T/C (dose: 45.0 mg/kg/injection, schedule: Q01DX001 (ip), vehicle: saline) is 146 % of control. In addition, the survivor count reads like this: (dose: 8.8 mg/kg/injection, schedule: Q01DX009 (ip), vehicle: carboxymethylcellulose (CMC)) 6 of 6; (dose: 13.3 mg/kg/injection, schedule: Q01DX009 (ip), vehicle: carboxymethylcellulose (CMC)) 3 of 6; (dose: 20.0 mg/kg/injection, schedule: Q01DX009 (ip), vehicle: carboxymethylcellulose (CMC)) 1 of 6; (dose: 30.0 mg/kg/injection, schedule: Q01DX009 (ip), vehicle: carboxymethylcellulose (CMC)) 0 of 6; (dose: 60.0 mg/kg/injection, schedule: Q01DX001 (ip), vehicle: carboxymethylcellulose (CMC)) 3 of 6; (dose: 65.0 mg/kg/injection, schedule: Q01DX001 (ip), vehicle: saline) 1 of 6. Moreover, the survivor count runs as follows: (dose: 75.0 mg/kg/injection, schedule: Q01DX001 (sc), vehicle: carboxymethylcellulose (CMC)) 1 of 6; (dose: 150.0 mg/kg/injection, schedule: Q01DX001 (sc), vehicle: carboxymethylcellulose (CMC)) 0 of 6; (dose: 300.0 mg/kg/injection, schedule: Q01DX001 (sc), vehicle: carboxymethylcellulose (CMC)) 0 of 6.

Turning to `C=C1C(=O)OC2C3OC(C)(CCC(O)C3COC(C)=O)CC(OC(=O)/C(=C/C)COC(C)=O)C12` (stereo not drawn), the survivor count (dose: 3.13 mg/kg/injection, schedule: Q01DX009 (ip), vehicle: Klucel (hydroxypropylcellulose) (HPC)) was 6 of 6.

`CC(C)(Cc1ccccc1)NC(=O)N(CCCl)N=O`: the T/C was 125 % of control (dose: 16.0 mg/kg/injection, schedule: Q01DX001 (ip), vehicle: other) and 148 % of control (dose: 125.0 mg/kg/injection, schedule: Q01DX001 (ip), vehicle: other).

Turning to `O=C(Cl)C1CCC1C(=O)Cl` (stereo not drawn), for the setting “dose: 300.0 mg/kg/injection, schedule: Q01DX001 (ip), vehicle: carboxymethylcellulose (CMC)”, the survivor count was 3 of 6.

On to `CSC(c1ccc(Oc2ccccc2)cc1)=[N+]1CCCCC1`, for which the survivor count is reported as 0 of 6 (dose: 75.0 mg/kg/injection, schedule: Q01DX001 (ip), vehicle: steroid suspending solution); 1 of 6 (dose: 150.0 mg/kg/injection, schedule: Q01DX001 (ip), vehicle: steroid suspending solution); 0 of 6 (dose: 300.0 mg/kg/injection, schedule: Q01DX001 (ip), vehicle: steroid suspending solution).

With `CCN(CC)CCNc1ccc([N+](=O)[O-])cc1[N+](=O)[O-]`, the survivor count runs as follows: (dose: 200.0 mg/kg/injection, schedule: Q01DX009 (ip), vehicle: saline with Tween-80) 3 of 6; (dose: 400.0 mg/kg/injection, schedule: Q01DX001 (ip), vehicle: Klucel (hydroxypropylcellulose) (HPC)) 1 of 6.

Consider `N=C(N)CSS(=O)(=O)O`, for which the survivor count (dose: 50.0 mg/kg/injection, schedule: Q01DX009 (ip), vehicle: Klucel (hydroxypropylcellulose) (HPC)) is recorded as 1 of 3; the survivor count (dose: 100.0 mg/kg/injection, schedule: Q04DX002 (ip), vehicle: Klucel (hydroxypropylcellulose) (HPC)) is 0 of 3; the survivor count (dose: 200.0 mg/kg/injection, schedule: Q04DX002 (ip), vehicle: Klucel (hydroxypropylcellulose) (HPC)) was 0 of 3; the survivor count (dose: 400.0 mg/kg/injection, schedule: Q04DX002 (ip), vehicle: Klucel (hydroxypropylcellulose) (HPC)) was 0 of 3.

As to `CCc1c2cc3c(cc2cc2c4cc5c(cc4cc[n+]12)OCO5)OCO3` (tested in a mixture with another compound), the survivor count by setting is: (dose: 12.5 mg/kg/injection, schedule: Q01DX009 (ip), vehicle: Klucel (hydroxypropylcellulose) (HPC)) 2 of 6; (dose: 25.0 mg/kg/injection, schedule: Q04DX003 (ip), vehicle: Klucel (hydroxypropylcellulose) (HPC)) 6 of 6; (dose: 50.0 mg/kg/injection, schedule: Q04DX003 (ip), vehicle: Klucel (hydroxypropylcellulose) (HPC)) 2 of 6; (dose: 100.0 mg/kg/injection, schedule: Q04DX003 (ip), vehicle: Klucel (hydroxypropylcellulose) (HPC)) 1 of 6; (dose: 200.0 mg/kg/injection, schedule: Q04DX003 (ip), vehicle: Klucel (hydroxypropylcellulose) (HPC)) 0 of 6; (dose: 400.0 mg/kg/injection, schedule: Q04DX003 (ip), vehicle: Klucel (hydroxypropylcellulose) (HPC)) 0 of 6.

Regarding `Oc1ccc(C2SC(c3ccc(O)cc3)SC(c3ccc(O)cc3)S2)cc1` (stereo not drawn), where the note is “dose: 100.0 mg/kg/injection, schedule: Q01DX001 (ip), vehicle: carboxymethylcellulose (CMC)”, the survivor count is listed as 4 of 4.

In the case of `NC1=NC(=O)C(c2ccccc2)O1` (stereo not drawn), where the note is “dose: 400.0 mg/kg/injection, schedule: Q01DX009 (ip), vehicle: Klucel (hydroxypropylcellulose) (HPC)”, the survivor count is 0 of 6.

For `CCOc1ccc([N+](=O)[O-])cc1CN(CC)CC`, the survivor count is reported as 3 of 6 (dose: 40.0 mg/kg/injection, schedule: Q04DX003 (ip), vehicle: saline); 0 of 6 (dose: 75.0 mg/kg/injection, schedule: Q01DX001 (ip), vehicle: saline); 0 of 6 (dose: 150.0 mg/kg/injection, schedule: Q01DX001 (ip), vehicle: saline); 0 of 6 (dose: 300.0 mg/kg/injection, schedule: Q01DX001 (ip), vehicle: saline).

Consider `CCC(C(C)=O)C(C)=O.CCC(C(C)=O)C(C)=O.[Cu]`, for which the survivor count was 0 of 6 (dose: 50.0 mg/kg/injection, schedule: Q01DX001 (ip), vehicle: saline); 0 of 6 (dose: 100.0 mg/kg/injection, schedule: Q01DX001 (ip), vehicle: saline); 0 of 6 (dose: 200.0 mg/kg/injection, schedule: Q01DX001 (ip), vehicle: saline).

Turning to `C[N+](C)(CC(=O)Nc1ccc(Cl)c(Cl)c1)CC(=O)c1ccc(Cl)cc1`, the survivor count by setting is: (dose: 200.0 mg/kg/injection, schedule: Q04DX003 (ip), vehicle: saline with Tween-80) 6 of 6; (dose: 400.0 mg/kg/injection, schedule: Q04DX003 (ip), vehicle: saline with Tween-80) 4 of 6.
